Data from patent US4304833A, “Photographic products and processes employing triarylmethane compounds” (Polaroid Corporation, priority 1980, dated 1981).

Experiment: sensitometry of multicolor transfer images, integral film units (Table I)
Settings: integral film unit
Protocol: For purposes of illustrating the invention, multicolor photosensitive element using, as the cyan, magenta and yellow dye developers was prepared by coating a gelatin-subcoated 4 mil opaque polyethylene terephthalate film base with the following layers:
A transparent 4 mil polyethylene terephthalate film base was coated, in succession, with the following layers to form an image-receiving component:
The aqueous alkaline processing composition comprised the following in % by weight.
The photosensitive element was exposed to a multicolor stepwedge through the image-receiving element superposed on the photosensitive element, and a rupturable container of the processing composition attached. This assembly was passed between a pair of pressure rolls so that a layer approximately 0.003" thick of the processing composition was distributed between the gelatin overcoat layer 9 of the photosensitive element and the image-receiving layer 3 of the image-receiving element. The blue, green and red D log E curves of the resulting multicolor transfer image (control image) were prepared.
Test multicolor transfer images were prepared in the same manner described above using an identical processing composition and identical photosensitive and image-receiving elements except that the compounds prepared in Examples 16, 26, 27 and 39 above were incorporated in the image-receiving layer 3 at the coverages (mgs./ft.^2) designated in Table I below. The blue, green and red D log E curves of the test images were prepared, and the speed in log E units for the blue, green and red H and D curves was measured at the 0.75 reflection density intercept of the neutral density column (0.75 Neut. Exp.) for each pair of control and test multicolor transfer images. The log E speed measurements obtained at said 0.75 reflection density-exposure intercept and the maximum and minimum reflection densities (Dmax and Dmin) obtained for the blue (B), green (G), and red (R) H and D curves are set forth in Table I.
In addition to the above, test multicolor transfer images using the compounds of Examples 26 and 39 were prepared in the same manner described above, the photosensitive elements and the image-receiving elements were superimposed prior to exposure, and exposure to a multicolor stepwedge was made through the image-receiving element of the integral film unit. The log E speed measurements and the reflection densities as determined for each pair of control and test images of the integral film units also are set forth in Table I below.

## COCC(=O)OCc1ccccc1C(=C1C=C(OC)C(=O)C(OC)=C1)c1cc(OC)c(O)c(OC)c1 [Example 39]
Dye coverage 5 mgs./ft.^2
  0.75 Neut. Exp. B (log E speed): 1.54 log E units
  0.75 Neut. Exp. G (log E speed): 1.61 log E units
  0.75 Neut. Exp. R (log E speed): 1.63 log E units
  Dmax B: 2.18
  Dmax G: 1.89
  Dmax R: 2.05
  Dmin B: 0.22
  Dmin G: 0.22
  Dmin R: 0.21

## CN(C(=O)OCCS(C)(=O)=O)S(=O)(=O)c1ccccc1C(=C1C=C(C(O)(C(F)(F)F)C(F)(F)F)C(=O)c2ccccc21)c1cc2c3c(c1)CCCN3CCC2 [Example 26]
Dye coverage 3 mgs./ft.^2
  0.75 Neut. Exp. B (log E speed): 1.55 log E units
  0.75 Neut. Exp. G (log E speed): 1.56 log E units
  0.75 Neut. Exp. R (log E speed): 1.48 log E units
  Dmax B: 2.10
  Dmax G: 1.91
  Dmax R: 2.10
  Dmin B: 0.20
  Dmin G: 0.23
  Dmin R: 0.23
